No constants are given. Whether binding was seen depends on the method and setting. In cells and extracts the contact can be indirect. Some binding calls cover weakened binding; strength is not graded here. Where a sequence is shown, tags or fusion partners need not be part of it.
Biological target: T1, FLOT1 (split-luciferase fusion, LCI) (Arabidopsis thaliana) (UniProt Q501E6)
T1 sequence: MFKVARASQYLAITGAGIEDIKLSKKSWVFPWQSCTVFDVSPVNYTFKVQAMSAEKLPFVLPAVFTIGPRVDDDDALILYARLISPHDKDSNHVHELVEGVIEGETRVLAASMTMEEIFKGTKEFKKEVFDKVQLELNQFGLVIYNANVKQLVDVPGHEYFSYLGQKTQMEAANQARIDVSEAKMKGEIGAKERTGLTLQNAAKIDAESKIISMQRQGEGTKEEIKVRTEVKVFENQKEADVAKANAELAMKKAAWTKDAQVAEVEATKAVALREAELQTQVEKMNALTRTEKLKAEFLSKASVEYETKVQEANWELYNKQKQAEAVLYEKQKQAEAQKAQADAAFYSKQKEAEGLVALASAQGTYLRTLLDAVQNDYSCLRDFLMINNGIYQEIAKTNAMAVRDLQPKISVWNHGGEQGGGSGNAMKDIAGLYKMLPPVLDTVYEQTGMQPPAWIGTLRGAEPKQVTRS
Assay: split reporter

Chains of the proteins cited; added tags and fusions are not shown. Residues count along the entry.
UniProt Q9LSR8, residues 22-766: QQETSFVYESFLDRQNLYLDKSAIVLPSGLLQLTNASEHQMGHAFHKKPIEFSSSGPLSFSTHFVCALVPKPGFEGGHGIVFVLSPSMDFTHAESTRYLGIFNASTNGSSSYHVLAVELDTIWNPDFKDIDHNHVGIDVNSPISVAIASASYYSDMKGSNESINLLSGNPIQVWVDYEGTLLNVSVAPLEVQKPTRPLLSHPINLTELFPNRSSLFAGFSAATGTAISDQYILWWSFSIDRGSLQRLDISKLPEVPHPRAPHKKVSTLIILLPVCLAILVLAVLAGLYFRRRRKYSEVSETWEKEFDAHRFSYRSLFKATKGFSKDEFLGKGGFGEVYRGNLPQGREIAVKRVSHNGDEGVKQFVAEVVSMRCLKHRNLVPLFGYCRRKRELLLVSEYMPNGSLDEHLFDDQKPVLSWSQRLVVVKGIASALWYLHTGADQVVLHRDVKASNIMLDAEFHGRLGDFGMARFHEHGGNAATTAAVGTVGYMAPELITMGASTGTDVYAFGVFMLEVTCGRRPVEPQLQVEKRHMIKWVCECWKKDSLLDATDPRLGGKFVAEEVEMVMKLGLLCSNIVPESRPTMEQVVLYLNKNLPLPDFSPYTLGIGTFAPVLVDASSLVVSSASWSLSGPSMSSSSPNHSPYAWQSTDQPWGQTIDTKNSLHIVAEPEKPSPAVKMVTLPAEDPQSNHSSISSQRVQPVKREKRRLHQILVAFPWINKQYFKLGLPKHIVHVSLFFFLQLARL
UniProt Q9FL28, residues 24-1173: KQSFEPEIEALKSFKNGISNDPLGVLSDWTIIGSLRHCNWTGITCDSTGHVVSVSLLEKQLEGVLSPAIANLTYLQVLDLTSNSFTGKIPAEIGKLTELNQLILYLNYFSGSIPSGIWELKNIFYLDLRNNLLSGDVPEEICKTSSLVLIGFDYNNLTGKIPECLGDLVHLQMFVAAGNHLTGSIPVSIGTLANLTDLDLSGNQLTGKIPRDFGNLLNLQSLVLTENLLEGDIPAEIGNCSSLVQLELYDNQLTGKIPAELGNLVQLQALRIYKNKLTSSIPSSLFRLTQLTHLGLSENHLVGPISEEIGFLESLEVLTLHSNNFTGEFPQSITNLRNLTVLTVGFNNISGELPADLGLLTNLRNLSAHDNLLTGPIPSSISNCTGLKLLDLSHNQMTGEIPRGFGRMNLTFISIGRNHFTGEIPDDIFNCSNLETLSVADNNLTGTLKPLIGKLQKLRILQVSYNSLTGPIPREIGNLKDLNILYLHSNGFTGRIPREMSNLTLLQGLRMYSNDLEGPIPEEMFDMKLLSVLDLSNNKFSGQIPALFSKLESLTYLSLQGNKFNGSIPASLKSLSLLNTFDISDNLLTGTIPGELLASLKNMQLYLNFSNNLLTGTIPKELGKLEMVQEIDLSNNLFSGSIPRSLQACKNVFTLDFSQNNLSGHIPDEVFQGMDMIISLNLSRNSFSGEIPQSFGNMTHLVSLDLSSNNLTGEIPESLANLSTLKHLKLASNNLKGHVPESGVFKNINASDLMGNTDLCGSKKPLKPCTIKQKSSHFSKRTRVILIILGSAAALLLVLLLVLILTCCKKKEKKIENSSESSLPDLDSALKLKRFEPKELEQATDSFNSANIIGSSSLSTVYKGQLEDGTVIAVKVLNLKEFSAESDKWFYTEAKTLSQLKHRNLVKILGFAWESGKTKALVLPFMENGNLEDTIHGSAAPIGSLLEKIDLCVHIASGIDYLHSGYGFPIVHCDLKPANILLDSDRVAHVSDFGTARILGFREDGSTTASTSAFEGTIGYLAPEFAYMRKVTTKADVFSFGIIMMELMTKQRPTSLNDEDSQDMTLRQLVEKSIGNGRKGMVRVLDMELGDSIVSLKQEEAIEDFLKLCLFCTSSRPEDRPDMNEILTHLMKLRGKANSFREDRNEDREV

Substance | binding
P2K1 (split-luciferase fusion, LCI) (from UniProt Q9LSR8 22-766) (receptor) | binds
FLS2 (split-luciferase fusion, LCI) (from UniProt Q9FL28 24-1173) (receptor) | binds

— paper doi:10.1101/720482
